{
  "source": "patent US20260373233A1",
  "about": "“ISLET AMYLOID POLYPEPTIDE ISOFORMS AND PEPTIDES AND METHODS OF USE” (The United States of America, as represented by the …, priority 2022, published 2026)",
  "key": {"[1]": {"assay": "SRM-MS (LC-MS/MS) measurement of IAPP isoform peptides in plasma samples", "parameters": "species or system human", "conditions": "AD vs normal control plasma; p<0.0001 (pro-IAPPβ), 0.0229 (pro-IAPPγ), 0.0224 (fs-IAPPγ)"}, "[2]": {"assay": "SRM-MS (LC-MS/MS) measurement of IAPP isoform peptides in CSF", "parameters": "species or system human", "conditions": "for difference of level between MCI/AD and control CSF: p=0.6237 (pro-IAPPγ), 0.3852 (fs-IAPPγ)"}, "[3]": {"assay": "Human IAPP ELISA of plasma samples", "conditions": "AD vs control plasma; t(26)=0.25, p=0.8044"}},
  "note": "Peptide text beside a SMILES is read from it. * marks the point of attachment. Cam = NC(=O)C*",
  "data": [
    {"compound": "CC[C@H](C)[C@H](NC(=O)[C@H](Cc1c[nH]c2ccccc12)NC(=O)[C@H](CCC(=O)O)NC(=O)[C@@H](N)CCC(N)=O)C(=O)N[C@H](C(=O)N1CCC[C@H]1C(=O)N[C@H](C(=O)N[C@@H](CC(C)C)C(=O)N[C@@H](CO)C(=O)N[C@@H](CCCNC(=N)N)C(=O)O)C(C)C)[C@@H](C)CC", "note": "[pro-IAPPγ] (H-QEWIIPVLSR-OH)", "values": [
      {"measurement": "level in AD plasma samples, % of normal controls", "setting": "[1]", "value": 82.0, "unit": "%"},
      {"measurement": "CSF level, % of pro-IAPPβ", "setting": "[2]; CSF", "value": 34, "unit": "%"},
      {"measurement": "difference of level between MCI/AD and control CSF", "setting": "[2]; MCI/AD vs control CSF", "value": "no significant differences"}
    ]},
    {"compound": "CC[C@H](C)[C@H](NC(=O)[C@@H]1CCCN1C(=O)[C@@H](NC(=O)[C@H](CCC(N)=O)NC(=O)[C@H](CC(=O)O)NC(=O)[C@H](CC(C)C)NC(=O)[C@@H](N)CSCC(N)=O)[C@@H](C)CC)C(=O)N[C@@H](Cc1ccccc1)C(=O)N[C@H](C(=O)N[C@H](C(=O)N[C@@H](Cc1ccccc1)C(=O)N[C@@H](CCC(N)=O)C(=O)N[C@@H](CCC(=O)O)C(=O)N[C@@H](CC(N)=O)C(=O)N[C@@H](Cc1c[nH]cn1)C(=O)N[C@@H](CCC(N)=O)C(=O)N[C@H](C(=O)N[C@@H](CCC(=O)O)C(=O)N[C@@H](CCCCN)C(=O)O)C(C)C)C(C)C)[C@@H](C)O", "note": "[pro-IAPPβ] (H-C(Cam)LDQIPIFTVFQENHQVEK-OH)", "values": [
      {"measurement": "level in AD plasma samples, % of normal controls", "setting": "[1]", "value": 56.5, "unit": "%"},
      {"measurement": "fold increase of level in MCI/AD CSF compared to controls", "setting": "[2]; MCI/AD vs control CSF, p=0.0102", "value": "about 3.4 fold"}
    ]},
    {"compound": "CC(C)C[C@H](NC(=O)[C@@H](NC(=O)[C@H](C)NC(=O)[C@H](CC(N)=O)NC(=O)CNC(=O)[C@@H](N)CO)[C@@H](C)O)C(=O)N1CCC[C@H]1C(=O)N[C@@H](Cc1c[nH]cn1)C(=O)N[C@H](C(=O)N[C@@H](CCC(N)=O)C(=O)N[C@@H](CCCNC(=N)N)C(=O)O)C(C)C", "note": "[fs-IAPPγ] (H-SGNATLPHVQR-OH)", "values": [
      {"measurement": "level in AD plasma samples, % of normal controls", "setting": "[1]", "value": 72.6, "unit": "%"},
      {"measurement": "CSF level, % of pro-IAPPγ", "setting": "[2]; CSF", "value": 5, "unit": "%"},
      {"measurement": "difference of level between MCI/AD and control CSF", "setting": "[2]; MCI/AD vs control CSF", "value": "no significant differences"}
    ]},
    {"compound": "IAPP: plasma IAPP quantified by Human IAPP ELISA, which detects IAPP37 only (KCNTATCATQRLANFLVHSSNNFGAILSSTNVGSNTY; Islet amyloid polypeptide; UniProt P10997 34-70, looked up)", "values": [
      {"measurement": "difference of plasma IAPP between AD and controls by IAPP ELISA", "setting": "[3]", "value": "no significant difference"}
    ]}
  ]
}
